Test results: publication PMC3936282
No constants are given. Whether binding was seen depends on the method and setting. Binding seen in cells or lysates may run through a third protein. Some binding calls cover weakened binding; strength is not graded here. Tags and fused reporters may be left off the sequences shown.

Legend:
[1] = biological target: T1, C. reinhardtii IFT46 (C. reinhardtii (endogenous in flagella)) (UniProt A2T2X4); assay: co-sedimentation; flagellar matrix of wild-type C. reinhardtii fractionated through a 10–25% sucrose density gradient; fractions on 10% SDS-PAGE, Western blotting
T1 sequence: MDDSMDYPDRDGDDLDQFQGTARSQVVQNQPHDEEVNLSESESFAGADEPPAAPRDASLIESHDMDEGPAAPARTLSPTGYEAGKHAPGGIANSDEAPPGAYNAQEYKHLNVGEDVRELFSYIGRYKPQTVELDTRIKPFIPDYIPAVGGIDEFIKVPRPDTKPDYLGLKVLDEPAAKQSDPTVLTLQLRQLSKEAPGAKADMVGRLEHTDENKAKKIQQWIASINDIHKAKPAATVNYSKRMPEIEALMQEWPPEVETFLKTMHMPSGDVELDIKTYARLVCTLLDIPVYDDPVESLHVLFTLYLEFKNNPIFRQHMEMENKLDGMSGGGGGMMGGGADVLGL

[2] = biological target: T2, C. reinhardtii IFT74 (C. reinhardtii (endogenous in flagella)) (UniProt Q6RCE1); assay: as above
T2 sequence: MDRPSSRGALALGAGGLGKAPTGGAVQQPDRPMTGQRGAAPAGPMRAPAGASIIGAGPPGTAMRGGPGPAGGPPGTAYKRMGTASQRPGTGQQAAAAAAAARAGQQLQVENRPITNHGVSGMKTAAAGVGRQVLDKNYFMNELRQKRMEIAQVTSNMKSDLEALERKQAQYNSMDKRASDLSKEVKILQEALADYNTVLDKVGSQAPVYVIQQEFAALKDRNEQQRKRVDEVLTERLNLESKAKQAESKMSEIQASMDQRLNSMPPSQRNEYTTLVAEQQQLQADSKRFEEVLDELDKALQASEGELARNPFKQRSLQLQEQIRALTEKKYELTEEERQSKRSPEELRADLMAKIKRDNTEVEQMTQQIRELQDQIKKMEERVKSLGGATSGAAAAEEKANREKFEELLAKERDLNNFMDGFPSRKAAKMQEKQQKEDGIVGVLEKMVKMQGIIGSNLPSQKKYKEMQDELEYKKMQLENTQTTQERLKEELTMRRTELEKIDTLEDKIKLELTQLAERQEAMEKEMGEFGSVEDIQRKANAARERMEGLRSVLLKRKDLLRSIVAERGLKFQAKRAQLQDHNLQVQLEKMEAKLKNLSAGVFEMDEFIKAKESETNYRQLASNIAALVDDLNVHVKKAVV

- binding [1]: binds
- binding [2]: binds
B1: C. reinhardtii DYF13 (protein, UniProt A8JA42 1-555)
chain: MFYSKSRPQHAARTNVAQAAANEKPKVPELEEFLTKRDYLGAIALLSFRRHANRNDLKNLEWLAYCYFHYGEHDKALVIYKELLQHEDPDPMFFVYSAACLYYMGMYKEAEEQALQGPKCALQTRILFHSAQRQGNDDKLMAYHGQLTDSIEDQLTLASIHYQRSHFQEATDIYKRLLLEHRDYLRSTVVYVALCYCKLDYYDVSLEILGVYLSAFPDSAIAVNLKACNHFRMYNGKAAEAELKTLAELSGGQHLDHDLIRHNLVVFRGGENALQVLPPLSDIPPEARLNLVIHHLRHHEVGEAFGLIKDMEPSTPPEFILKAVVHAMLGQVKGDPEHLKKAQQYYQLVGASASECDTIPGRQCMASCFFLLKQFEDVLVFLSSIKTYFLNDDDFNWNLGIAKAATGKYKEAEETLLQIANDKYRNEYTYTSWLARCYIMNGKARLAWERYLQLETNDESYQLLLLIANDCYKMGAFYFACKAFDVLERLDPAPEYLEGKKGAACGAFQMIVAGKEPKDLLRDVISLLRGNNSADQCEPIVAVMRKWAKNNGVKL
